Measurements taken from publication PMC8660890.
No constants are given. Whether binding was seen depends on the method and setting. In cells and extracts the contact can be indirect. Some entries that bind do so weakly or less than the wild type.

By UniProt entry, the sequences of proteins in these tests, tags left out. Residues count along the entry.
UniProt Q99102, residues 29-5412: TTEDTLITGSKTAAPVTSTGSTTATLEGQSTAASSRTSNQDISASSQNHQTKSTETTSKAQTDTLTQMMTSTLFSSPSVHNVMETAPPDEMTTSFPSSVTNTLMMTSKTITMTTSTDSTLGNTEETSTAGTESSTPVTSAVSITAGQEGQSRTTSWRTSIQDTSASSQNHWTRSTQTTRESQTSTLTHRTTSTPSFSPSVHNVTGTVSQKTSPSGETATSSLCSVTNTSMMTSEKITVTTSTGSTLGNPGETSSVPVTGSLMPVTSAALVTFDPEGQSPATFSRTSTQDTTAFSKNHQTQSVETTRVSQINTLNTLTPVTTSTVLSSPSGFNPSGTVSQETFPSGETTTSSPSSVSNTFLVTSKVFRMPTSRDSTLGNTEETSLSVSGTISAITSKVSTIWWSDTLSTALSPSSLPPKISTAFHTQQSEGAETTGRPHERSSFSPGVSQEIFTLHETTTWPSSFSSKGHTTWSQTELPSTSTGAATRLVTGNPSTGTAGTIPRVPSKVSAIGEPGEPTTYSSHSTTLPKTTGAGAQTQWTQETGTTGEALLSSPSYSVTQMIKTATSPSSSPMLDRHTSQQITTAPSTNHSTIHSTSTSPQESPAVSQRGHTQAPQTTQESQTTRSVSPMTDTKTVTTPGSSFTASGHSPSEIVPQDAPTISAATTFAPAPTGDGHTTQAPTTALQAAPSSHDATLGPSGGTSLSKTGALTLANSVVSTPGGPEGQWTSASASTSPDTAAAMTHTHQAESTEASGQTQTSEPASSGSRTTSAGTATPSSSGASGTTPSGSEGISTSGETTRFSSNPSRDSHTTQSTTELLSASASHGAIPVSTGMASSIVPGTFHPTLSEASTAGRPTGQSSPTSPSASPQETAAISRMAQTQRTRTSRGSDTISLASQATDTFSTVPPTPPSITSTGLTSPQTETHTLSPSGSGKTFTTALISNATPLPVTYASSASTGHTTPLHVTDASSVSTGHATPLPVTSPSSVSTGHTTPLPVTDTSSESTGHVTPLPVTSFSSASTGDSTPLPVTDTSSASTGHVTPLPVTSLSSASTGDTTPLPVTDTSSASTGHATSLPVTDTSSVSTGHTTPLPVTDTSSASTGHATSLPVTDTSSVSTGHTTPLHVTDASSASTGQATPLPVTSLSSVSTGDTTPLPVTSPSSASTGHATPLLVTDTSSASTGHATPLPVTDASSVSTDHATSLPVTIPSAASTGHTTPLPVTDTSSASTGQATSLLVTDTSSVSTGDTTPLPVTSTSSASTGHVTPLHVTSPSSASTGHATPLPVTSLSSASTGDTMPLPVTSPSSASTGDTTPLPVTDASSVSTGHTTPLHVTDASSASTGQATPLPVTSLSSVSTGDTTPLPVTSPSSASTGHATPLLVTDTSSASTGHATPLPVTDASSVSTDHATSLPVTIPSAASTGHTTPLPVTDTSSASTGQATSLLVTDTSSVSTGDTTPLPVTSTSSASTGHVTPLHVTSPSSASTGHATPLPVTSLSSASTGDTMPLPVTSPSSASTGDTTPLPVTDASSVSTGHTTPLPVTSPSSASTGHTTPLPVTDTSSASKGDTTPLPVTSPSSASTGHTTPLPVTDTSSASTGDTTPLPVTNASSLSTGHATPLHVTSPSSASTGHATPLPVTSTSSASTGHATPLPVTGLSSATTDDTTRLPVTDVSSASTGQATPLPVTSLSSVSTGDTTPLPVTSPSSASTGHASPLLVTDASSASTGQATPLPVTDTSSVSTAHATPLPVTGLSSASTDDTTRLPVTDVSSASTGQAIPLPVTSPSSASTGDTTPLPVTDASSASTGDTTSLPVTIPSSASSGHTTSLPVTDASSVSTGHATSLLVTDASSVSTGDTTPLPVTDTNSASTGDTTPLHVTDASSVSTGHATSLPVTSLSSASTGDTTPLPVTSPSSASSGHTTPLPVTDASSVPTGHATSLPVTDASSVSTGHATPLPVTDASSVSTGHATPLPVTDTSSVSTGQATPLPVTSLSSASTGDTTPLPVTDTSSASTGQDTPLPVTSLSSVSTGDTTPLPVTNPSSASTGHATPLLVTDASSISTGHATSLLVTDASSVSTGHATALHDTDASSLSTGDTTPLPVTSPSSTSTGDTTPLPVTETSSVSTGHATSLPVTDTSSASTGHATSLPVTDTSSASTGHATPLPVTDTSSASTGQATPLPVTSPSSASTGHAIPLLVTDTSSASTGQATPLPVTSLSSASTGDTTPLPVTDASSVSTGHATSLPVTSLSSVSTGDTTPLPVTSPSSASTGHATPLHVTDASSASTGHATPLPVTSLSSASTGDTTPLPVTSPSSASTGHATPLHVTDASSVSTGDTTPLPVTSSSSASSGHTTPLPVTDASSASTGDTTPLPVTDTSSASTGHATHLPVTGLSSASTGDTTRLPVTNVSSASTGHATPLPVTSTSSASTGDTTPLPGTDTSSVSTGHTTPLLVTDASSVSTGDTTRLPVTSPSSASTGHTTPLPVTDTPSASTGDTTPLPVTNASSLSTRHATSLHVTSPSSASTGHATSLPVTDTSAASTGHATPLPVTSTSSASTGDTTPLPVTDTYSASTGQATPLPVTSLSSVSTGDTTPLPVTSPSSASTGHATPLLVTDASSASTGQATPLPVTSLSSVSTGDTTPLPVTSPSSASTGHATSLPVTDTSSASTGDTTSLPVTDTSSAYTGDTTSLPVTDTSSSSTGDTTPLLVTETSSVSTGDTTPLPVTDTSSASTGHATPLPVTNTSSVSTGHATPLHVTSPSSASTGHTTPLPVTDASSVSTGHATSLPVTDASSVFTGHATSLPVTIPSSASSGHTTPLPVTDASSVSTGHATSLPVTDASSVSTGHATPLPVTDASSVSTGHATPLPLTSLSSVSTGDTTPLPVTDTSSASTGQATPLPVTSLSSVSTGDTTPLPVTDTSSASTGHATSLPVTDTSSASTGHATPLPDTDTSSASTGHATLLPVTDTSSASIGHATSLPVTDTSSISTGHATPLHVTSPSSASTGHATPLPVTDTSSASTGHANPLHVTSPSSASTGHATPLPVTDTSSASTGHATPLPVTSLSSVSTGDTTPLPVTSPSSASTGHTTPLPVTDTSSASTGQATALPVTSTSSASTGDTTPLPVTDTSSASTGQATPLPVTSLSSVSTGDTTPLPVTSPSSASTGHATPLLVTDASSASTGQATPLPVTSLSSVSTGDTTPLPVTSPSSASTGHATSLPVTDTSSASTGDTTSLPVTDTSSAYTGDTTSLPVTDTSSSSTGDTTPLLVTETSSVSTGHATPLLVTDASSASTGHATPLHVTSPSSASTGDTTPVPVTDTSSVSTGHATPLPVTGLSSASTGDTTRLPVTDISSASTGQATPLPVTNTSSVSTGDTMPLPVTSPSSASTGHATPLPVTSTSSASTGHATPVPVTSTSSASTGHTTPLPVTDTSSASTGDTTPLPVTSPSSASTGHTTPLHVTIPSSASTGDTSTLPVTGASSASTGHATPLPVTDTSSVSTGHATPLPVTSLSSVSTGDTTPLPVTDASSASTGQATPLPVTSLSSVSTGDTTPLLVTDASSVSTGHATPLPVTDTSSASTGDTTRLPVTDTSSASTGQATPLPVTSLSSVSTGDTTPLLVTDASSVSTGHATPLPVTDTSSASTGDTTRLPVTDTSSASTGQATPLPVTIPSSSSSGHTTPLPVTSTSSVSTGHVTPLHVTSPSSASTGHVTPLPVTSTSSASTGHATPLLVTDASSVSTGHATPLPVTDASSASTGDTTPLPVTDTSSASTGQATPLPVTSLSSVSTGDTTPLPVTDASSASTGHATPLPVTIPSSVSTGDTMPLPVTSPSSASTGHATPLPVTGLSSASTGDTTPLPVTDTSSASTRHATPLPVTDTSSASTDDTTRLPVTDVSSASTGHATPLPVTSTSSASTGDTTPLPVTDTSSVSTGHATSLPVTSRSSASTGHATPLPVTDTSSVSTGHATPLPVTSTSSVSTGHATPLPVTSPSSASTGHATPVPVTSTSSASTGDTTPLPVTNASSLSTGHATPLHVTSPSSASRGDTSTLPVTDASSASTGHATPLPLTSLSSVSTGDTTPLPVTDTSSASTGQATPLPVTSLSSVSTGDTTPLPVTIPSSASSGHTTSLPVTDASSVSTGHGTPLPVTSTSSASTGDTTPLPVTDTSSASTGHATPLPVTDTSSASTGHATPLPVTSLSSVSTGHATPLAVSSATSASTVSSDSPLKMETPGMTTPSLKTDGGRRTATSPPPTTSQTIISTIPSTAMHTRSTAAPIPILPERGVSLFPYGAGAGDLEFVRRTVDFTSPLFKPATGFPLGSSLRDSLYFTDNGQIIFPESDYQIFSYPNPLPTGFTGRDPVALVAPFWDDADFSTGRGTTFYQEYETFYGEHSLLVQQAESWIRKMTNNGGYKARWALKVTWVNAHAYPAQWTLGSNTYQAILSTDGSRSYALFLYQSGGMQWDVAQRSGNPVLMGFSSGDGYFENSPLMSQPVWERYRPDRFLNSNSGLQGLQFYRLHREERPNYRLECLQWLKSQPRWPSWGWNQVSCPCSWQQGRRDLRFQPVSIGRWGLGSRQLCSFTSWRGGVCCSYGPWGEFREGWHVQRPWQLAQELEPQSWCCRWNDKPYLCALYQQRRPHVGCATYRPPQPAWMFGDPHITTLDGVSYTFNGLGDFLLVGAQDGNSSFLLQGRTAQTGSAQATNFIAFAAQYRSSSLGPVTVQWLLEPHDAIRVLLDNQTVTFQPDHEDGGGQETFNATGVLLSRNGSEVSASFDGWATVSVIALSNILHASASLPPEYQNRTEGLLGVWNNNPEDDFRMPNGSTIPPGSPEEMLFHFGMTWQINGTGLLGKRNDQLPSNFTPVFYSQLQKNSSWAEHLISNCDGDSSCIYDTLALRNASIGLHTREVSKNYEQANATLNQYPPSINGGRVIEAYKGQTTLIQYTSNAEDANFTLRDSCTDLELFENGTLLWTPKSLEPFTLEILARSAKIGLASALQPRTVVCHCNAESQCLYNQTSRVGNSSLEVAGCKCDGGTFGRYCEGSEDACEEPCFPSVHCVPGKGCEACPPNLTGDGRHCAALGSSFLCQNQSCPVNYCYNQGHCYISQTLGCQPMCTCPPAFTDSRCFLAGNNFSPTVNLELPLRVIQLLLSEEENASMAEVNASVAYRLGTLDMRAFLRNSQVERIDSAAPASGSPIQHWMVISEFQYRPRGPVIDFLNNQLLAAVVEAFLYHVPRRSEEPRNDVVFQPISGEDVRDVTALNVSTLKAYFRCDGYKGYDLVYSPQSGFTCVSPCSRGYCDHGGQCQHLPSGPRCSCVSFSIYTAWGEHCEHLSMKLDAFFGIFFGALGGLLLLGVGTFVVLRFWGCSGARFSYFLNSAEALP
UniProt P15311: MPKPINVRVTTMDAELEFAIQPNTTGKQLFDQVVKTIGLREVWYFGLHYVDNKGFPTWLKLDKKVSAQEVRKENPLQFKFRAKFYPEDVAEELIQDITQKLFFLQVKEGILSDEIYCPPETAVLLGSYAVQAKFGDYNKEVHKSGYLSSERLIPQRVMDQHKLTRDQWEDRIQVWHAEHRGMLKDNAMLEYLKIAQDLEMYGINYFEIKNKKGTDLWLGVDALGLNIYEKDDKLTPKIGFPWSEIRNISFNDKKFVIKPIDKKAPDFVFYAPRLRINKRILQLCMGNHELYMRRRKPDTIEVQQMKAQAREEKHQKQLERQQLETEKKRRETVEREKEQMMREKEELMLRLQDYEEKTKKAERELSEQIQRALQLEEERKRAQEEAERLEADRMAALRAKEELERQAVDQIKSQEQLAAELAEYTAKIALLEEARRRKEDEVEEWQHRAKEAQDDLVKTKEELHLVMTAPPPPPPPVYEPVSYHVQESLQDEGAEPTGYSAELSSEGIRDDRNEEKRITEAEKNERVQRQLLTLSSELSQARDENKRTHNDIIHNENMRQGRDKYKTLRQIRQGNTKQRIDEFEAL

Target: endogenous MUC4 (human (endogenous in CD18/HPAF)) (UniProt Q99102)
Assay: co-IP; CD18/HPAF lysate, immunoprecipitation with anti-MUC4β mAb 6E8 and protein A/G agarose beads; immunoblot for Ezrin

Ezrin (from UniProt P15311 1-586)
binding: binds
